Assay results: article PMC10942606
These are yes or no findings as the source states them, for the method shown.

How the values were obtained:
[1] = target: T1, Pcf2 (medium subunit of SpCAF-1) (S. pombe) (UniProt O13985); experiment: SEC
T1 sequence: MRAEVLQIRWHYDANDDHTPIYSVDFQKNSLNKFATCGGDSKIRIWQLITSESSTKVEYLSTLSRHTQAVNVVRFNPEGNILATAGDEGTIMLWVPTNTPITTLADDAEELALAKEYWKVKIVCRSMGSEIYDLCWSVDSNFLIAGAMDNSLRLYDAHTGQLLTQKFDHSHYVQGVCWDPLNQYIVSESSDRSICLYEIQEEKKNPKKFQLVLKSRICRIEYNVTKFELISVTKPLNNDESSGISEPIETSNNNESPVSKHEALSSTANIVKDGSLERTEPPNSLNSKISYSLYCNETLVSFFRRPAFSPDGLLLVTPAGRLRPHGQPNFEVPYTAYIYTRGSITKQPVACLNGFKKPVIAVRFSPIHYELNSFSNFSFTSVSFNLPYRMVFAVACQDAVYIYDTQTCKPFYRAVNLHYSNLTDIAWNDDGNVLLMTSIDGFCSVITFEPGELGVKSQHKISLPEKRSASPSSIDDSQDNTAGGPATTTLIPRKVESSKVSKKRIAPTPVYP

[2] = target: Pcf3 (small subunit of SpCAF-1) (S. pombe) (UniProt Q9Y825); experiment: SEC
[3] = target: Pcf1_KER (56-170) (S. pombe) (UniProt Q1MTN9); experiment: SEC-SAXS

B1: Pcf2 (medium subunit of SpCAF-1) (protein, UniProt O13985 1-512)
chain: T1 sequence
Q: Which binding [1] does the source give for B1 here?
A: no binding

B2: Pcf3 (small subunit of SpCAF-1) (protein, UniProt Q9Y825 1-408)
chain: MNTELDMQNFEHIKFLENQISEDHFRWKKNSKHLYNLLITRTLTWPSLSIQWLSAMESITEKAVLKNRLLLGTHAAEGMPNFLQLADLDLPDFNQTILDPVKHYNEDTGELGGYSMQHSCKFQISQRILHNGDVNRVRHMPQNPNIIATMSSCGNAYIFDRTKYTSMPAEEFLPNISLIGHKKEGFGLSWNRQQNCRLVTAANDSKILEWDLNNFSRDTRCLTPVKDFHYDDSPVNDVEYHPHHTNLYIAVNDNGIAFICDNRLQQTCSKTVKASNPLFSVRHNPSIATLFALGSEQDLQLWDLRNLNKSVFNTSEDLSDNRLKVPSRLTLGGTSLSWSWRHSGRIVSACQEYCYVWNFNKANPLEFVHAGHKGTVNEVDFDPFEAQCIASVADDNELHIWKPNVIVN
Q: For B2, which binding [1] is on record?
A: no binding

Q: What about the binding [2] of the same binder?
A: no binding

B3: Pcf1_KER (56-170) (domain or fragment, UniProt Q1MTN9 56-170)
chain: KLSYEGNRKKRIYNGSAEAGKEKKLQKQRAQEERIRQKEAERLKREKERQQREQEKKLREQEKIAAKKMKELEKLEKERIRLQEQQRRKEERDQKLREKEEAQRLRQEQILNKER
Q: For B3, which binding [3] is on record?
A: no binding
